Results are given in words; binding and its absence hold for the method and conditions named. In cells and extracts the contact can be indirect. Some binding calls cover weakened binding; strength is not graded here.
Key:
Experiment in all cases: pull-down; GST pulldown: GST-tagged AbdB proteins or GST alone as bait; bacterially expressed His-tagged Dsx proteins as input cell lysates; Western blot; three repetitions; only the target purified
[1] = target: GST-AbdB-N (truncated version of AbdB-r, aa residues 89-270) (Drosophila) (UniProt P09087)
[2] = target: GST-AbdB-HD (aa residues 162-228) (Drosophila) (UniProt P09087)
[3] = target: GST-AbdB-NΔCTD (aa residues 89-228) (Drosophila) (UniProt P09087)
[4] = target: GST-AbdB-ΔN (aa residues 162-270) (Drosophila) (UniProt P09087)

Chains of the proteins cited; added tags and fusions are not shown. Lines headed by an entry give the natural chain unless they say otherwise; changes in a name come on top.
UniProt P23023: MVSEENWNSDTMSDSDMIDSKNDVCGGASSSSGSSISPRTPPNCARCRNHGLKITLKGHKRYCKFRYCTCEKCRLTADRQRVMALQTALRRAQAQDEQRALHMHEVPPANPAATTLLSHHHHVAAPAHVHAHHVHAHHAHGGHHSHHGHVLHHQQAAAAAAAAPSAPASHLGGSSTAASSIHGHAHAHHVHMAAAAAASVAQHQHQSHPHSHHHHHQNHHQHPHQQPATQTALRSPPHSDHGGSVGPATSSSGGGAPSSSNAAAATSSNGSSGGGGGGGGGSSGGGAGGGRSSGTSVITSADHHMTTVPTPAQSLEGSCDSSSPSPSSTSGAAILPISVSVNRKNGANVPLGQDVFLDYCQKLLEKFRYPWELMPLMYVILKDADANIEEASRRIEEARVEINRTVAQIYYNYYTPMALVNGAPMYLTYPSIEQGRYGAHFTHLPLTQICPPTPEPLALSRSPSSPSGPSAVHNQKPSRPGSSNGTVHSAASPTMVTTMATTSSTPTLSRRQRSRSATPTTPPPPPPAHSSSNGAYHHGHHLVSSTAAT

DsxΔDD (aa residues 1-356) (from UniProt P23023 1-356) (domain or fragment)
binding [1]: binds

DsxΔN (aa residues 41-397) (from UniProt P23023 41-397) (domain or fragment)
binding [1]: binds

His-Dsx^CR (Dsx common region, aa residues 1-397) (from UniProt P23023 1-397) (domain or fragment)
binding [2]: binds
binding [3]: binds
binding [4]: binds
